The other results are listed elsewhere or left out. The data scatter; read single values as rough.
Key:
[1] = compound: ClCC(=O)N[C@@H]1CCCc2ccccc12; test: log2 mean competition ratio of IA-DTB cysteine labelling (DMSO/compound) (log2 ratio); higher = stronger cysteine engagement by compound; conditions: treatment time: 4 h, cell line lysate: HEK293T
Description: (§1)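 IA-DTB competitive cysteine chemoproteomics in HEK293T RIPA lysate. Lysates were treated with compound 29 or 30 at 50 or 200 µM for 4 h, then IA-DTB (500 µM, 1 h), trypsin-digested, NeutrAvidin-enriched and analysed by diaPASEF. Competition ratio = intensity DMSO / intensity compound (n=4 treated, n=64 DMSO); binding: mean log2 CR ≥ 1 and p ≤ 0.05 plus QC filters. Target is the cysteine site.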

[2] = compound: ClCC(=O)N[C@H]1CCCc2ccccc12; test: as above; conditions: treatment time: 4 h, cell line lysate: HEK293T
Description: as §1

Target	log2 mean competition ratio ([1]; 50 µM)	log2 mean competition ratio ([1]; 200 µM)	log2 mean competition ratio ([2]; 50 µM)	log2 mean competition ratio ([2]; 200 µM)
RANBP6 C952 (UniProt O60518)	-0.0963	-0.137	-0.427	-0.0483
RCC1L C425 (UniProt Q96I51)	0.00385	0.101	-0.0102	0.00769
RGP1 C101 (UniProt Q92546)	0.246	-0.0472	0.207	-0.0297
RITA1 C80	0.106	0.418	-0.237	0.215
RBFA C315 (UniProt Q8N0V3)	-0.203	-0.342	-0.165	0.143
RBL2 C635 (UniProt Q08999)	0.0451	-0.135	0.036	-0.0983
RBL1 C288 (UniProt P28749)	-0.272		0.0834	0.407
RANBP1 C158 (UniProt P43487)	-0.0708	-0.0306	0.0411	0.0654
RIC8A C79 (UniProt Q9NPQ8)	-0.18	0.421	0.0812	0.454
RBBP8 C692 (UniProt Q99708)	-0.498	-0.0191	-0.397	-0.0559
RANBP2 C3100 (UniProt P49792)	-0.226	-0.0818	-0.209	0.0372
RCCD1 C139 (UniProt A6NED2)	-0.0136	0.617	0.124	1.45
RBM12B C837 (UniProt Q8IXT5)	0.0545	0.149	0.0799	0.0625
RBM4B C89 (UniProt Q9BQ04)	-0.0553	0.0821	-0.57	-0.0781
RIN2 C802		-0.175		0.129
RANBP17 C1038 (UniProt Q9H2T7)		-0.107	0.00858	0.0025
RFC1 C916 (UniProt P35251)	-0.229	0.129	0.0816	0.13
RALGAPB C1442 (UniProt Q86X10)	0.0443		0.305	-0.155
RASA1 C1002 (UniProt P20936)	0.256	-0.0532	-0.368	-0.181
RARA C444	-0.123	0.159	-0.084	0.309
RELCH C624 (UniProt Q9P260)	0.15	-0.217	0.132	-0.166
RAP1GAP2 C617 (UniProt Q684P5)	0.114	-0.416	-0.00239	-0.202

Target	log2 mean competition ratio ([1]; 50 µM)	log2 mean competition ratio ([1]; 200 µM)	log2 mean competition ratio ([2]; 50 µM)	log2 mean competition ratio ([2]; 200 µM)
RILPL2 C161 (UniProt Q969X0)	-0.0224	-0.281	-0.433	-0.13
RALGAPA2 C1662 (UniProt Q2PPJ7)	-0.00575	-0.0426	-0.14	-0.00454
RDH10 C320 (UniProt Q8IZV5)		0.396	0.628	0.207
RECQL4 C749 (UniProt O94761)	0.199	0.331	0.222	0.262
RASSF7 C122 (UniProt Q02833)	-0.0363	0.0736	0.0367	0.0933
RIPOR1 C945 (UniProt Q6ZS17)	0.108	-0.12	-0.126	-0.00629
RANBP2 C2696 (UniProt P49792)	0.211	0.191	0.0229	0.215
RIOK1 C185 (UniProt Q9BRS2)	-0.18	-0.0534	-0.108	-0.0145
RGP1 C208 (UniProt Q92546)		0.164	0.158	0.101
RBM12B C204 (UniProt Q8IXT5)	-0.0101	0.0668	-0.217	0.0787
RCC2 C144 (UniProt Q9P258)	0.318	0.0871	0.148	-0.0242
RELCH C605 (UniProt Q9P260)	-0.0231	-0.0587	-0.459	-0.393
RAI1 C1729 (UniProt Q7Z5J4)	0.184	0.141	-0.225	0.13
RHOT1 C175 (UniProt Q8IXI2)	0.161	0.187	-0.129	-0.0663
RAF1 C588 (UniProt P04049)	-0.249	-0.0159	-0.244	0.0888
RAI1 C1553 (UniProt Q7Z5J4)	0.165	0.0514	-0.0362	-0.0119
RHOBTB3 C155 (UniProt O94955)	0.199	0.19	0.115	0.204
RAP1GDS1 C350 (UniProt P52306)	-0.0884	-0.0993	-0.402	-0.199
RIPK1 C656 (UniProt Q13546)	0.142	0.15	0.187	-0.185
RIC1 C818 (UniProt Q4ADV7)		-0.317	0.544	-0.0787
RHOF C30 (UniProt Q9HBH0)	0.0202	0.136	0.178	0.2
RASA2 C436 (UniProt Q15283)	-0.109	-0.406	0.231	-0.128

A few values from above:
RBM12B C204 (UniProt Q8IXT5) – log2 mean competition ratio ([1]; 50 µM): -0.0101
RAF1 C588 (UniProt P04049) – log2 mean competition ratio ([2]; 200 µM): 0.0888

Reference: the supplement of paper PMC11732987, “Enantioselective OTUD7B fragment discovery through chemoproteomics screening and high-throughput optimisation” (Communications Chemistry, 2025)
